The values below come from paper PMC4529304.

Protein sequences, listed by entry. Tags and fused reporters are not part of them.
UniProt P46940: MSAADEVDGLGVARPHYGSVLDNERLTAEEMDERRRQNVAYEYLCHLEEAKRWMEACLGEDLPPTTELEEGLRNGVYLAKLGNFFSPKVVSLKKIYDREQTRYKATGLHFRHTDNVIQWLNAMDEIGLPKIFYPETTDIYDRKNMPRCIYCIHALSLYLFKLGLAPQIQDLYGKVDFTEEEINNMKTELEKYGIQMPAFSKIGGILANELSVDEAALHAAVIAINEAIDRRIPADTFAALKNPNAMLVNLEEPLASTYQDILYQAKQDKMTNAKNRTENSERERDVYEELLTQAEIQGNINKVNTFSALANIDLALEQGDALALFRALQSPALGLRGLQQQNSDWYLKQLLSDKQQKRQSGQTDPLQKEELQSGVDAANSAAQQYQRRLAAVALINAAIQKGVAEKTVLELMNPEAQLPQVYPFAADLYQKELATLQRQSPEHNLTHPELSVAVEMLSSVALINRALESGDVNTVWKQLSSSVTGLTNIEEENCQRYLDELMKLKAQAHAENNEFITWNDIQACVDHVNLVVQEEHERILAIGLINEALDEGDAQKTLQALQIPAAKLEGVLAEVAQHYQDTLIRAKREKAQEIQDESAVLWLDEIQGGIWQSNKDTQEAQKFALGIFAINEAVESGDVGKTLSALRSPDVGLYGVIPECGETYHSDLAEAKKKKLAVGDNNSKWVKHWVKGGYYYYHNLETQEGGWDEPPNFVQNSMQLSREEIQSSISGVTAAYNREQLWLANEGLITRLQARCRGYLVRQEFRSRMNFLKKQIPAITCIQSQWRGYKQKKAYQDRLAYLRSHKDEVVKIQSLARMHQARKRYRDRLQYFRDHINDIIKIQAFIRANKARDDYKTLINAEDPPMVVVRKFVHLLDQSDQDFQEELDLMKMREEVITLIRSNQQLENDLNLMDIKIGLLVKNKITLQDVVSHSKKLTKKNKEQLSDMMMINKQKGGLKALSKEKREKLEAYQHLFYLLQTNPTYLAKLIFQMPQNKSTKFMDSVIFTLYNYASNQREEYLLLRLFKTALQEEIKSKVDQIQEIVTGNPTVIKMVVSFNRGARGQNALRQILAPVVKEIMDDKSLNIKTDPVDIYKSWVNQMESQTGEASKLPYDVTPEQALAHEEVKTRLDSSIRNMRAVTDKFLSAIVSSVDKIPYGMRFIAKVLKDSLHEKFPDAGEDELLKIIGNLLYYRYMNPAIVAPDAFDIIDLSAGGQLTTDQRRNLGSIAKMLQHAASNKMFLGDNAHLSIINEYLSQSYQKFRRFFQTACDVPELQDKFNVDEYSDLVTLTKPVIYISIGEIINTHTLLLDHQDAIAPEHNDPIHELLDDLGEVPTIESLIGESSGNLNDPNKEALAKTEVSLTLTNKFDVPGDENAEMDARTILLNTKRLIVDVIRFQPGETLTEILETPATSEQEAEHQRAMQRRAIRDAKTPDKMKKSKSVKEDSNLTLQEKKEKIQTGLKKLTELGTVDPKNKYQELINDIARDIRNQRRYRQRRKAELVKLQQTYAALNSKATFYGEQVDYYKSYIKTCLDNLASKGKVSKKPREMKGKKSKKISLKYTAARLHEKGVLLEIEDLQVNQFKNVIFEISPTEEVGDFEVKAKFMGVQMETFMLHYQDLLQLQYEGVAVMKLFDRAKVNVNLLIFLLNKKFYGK
UniProt P35222: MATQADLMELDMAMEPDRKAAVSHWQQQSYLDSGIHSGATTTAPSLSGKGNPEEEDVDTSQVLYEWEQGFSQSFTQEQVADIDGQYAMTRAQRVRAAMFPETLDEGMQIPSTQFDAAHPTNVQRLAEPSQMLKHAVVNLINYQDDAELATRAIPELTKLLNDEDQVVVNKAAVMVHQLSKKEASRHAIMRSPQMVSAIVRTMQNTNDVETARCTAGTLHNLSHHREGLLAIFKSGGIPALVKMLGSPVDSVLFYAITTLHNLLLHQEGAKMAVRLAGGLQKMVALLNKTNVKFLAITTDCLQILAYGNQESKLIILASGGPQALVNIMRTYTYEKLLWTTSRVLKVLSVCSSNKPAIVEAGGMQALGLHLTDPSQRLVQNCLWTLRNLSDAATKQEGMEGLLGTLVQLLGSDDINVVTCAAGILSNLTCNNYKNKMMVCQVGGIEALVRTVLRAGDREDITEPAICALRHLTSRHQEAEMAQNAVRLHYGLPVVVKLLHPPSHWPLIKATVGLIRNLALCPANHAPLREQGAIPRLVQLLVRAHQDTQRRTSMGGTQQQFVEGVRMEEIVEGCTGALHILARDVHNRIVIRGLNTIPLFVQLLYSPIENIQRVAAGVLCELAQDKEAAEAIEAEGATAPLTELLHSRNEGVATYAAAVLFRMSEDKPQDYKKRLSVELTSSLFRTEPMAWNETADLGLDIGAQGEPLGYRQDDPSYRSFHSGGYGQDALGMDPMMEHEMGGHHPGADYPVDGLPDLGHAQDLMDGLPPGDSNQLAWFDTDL

In this assay the target is IQ-domain GTPase-activating protein 1 (IQGAP1) (human (endogenous in HepG2)) (UniProt P46940). The assay can be described thus: co-IP; 500 ug HepG2 cell lysate in 20 mM Tris pH 7.5, 150 mM NaCl, 1% Triton X-100, protease inhibitors; 1-2 ug anti-IQGAP1 antibodies on protein A+G sepharose, mouse IgG as control; 4 washes; western blot. (Immunoblotting shows a protein as a band on a membrane.)

These are yes or no findings as the source states them, for the method shown. Binding seen in cells or lysates may run through a third protein. Some entries that bind do so weakly or less than the wild type.

On to β-catenin (from UniProt P35222 1-781), for which the binding result was “binds”.
